The text below walks through data of PubChem BioAssay AID1487 (National Center for Advancing Translational Sciences (NCATS), 2009).

The nature of this test: qHTS Assay for Modulators of Lamin A Splicing. Particulars: HeLa LMNA splicing GFP/RFP minigene ratio, 48 h. A digest of the protocol: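 S3 HeLa stable clones carrying a lamin A-EGFP splicing minigene plus DsRed2 were seeded at 600 cells/well in Opti-MEM with 2% FBS, pin-dosed and incubated 48 h at 37°C. Acumen cytometry (488 nm) gave the GFP/RFP total-intensity ratio.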
A general note: Quantitative high-throughput screening tests each substance at several concentrations.

Setting [1] is: measured here: RFP viability control channel.
Where [2] appears, read: measured here: GFP splicing reporter channel.

The list shows a part of the results. Shown are side measurements of this screen, not its main read-out; they come without a call. The list favours compounds with an active or inconclusive main result. Words in brackets tell the shape of the fitted curve; partial curves, single points and poor fits give uncertain potencies.

A word on the AC50: it is the midpoint of the concentration-response curve, whichever way the signal moves. For the molecule `CCOC(=O)c1c(CSc2cccs2)n(C)c2cc(Br)c(O)c(CN(C)C)c12`, the half-maximal activity concentration (AC50) under setting [1] was 0.0112 µM [rising, full curve, poor fit]. For the molecule `CCOC(=O)/C(=N\Nc1ccccc1)S(=O)(=O)c1ccccc1`, the concentration at half-maximal activity (AC50) under setting [2] is 17.8 µM [rising, single point] and the half-maximal activity concentration (AC50) under setting [1] was 31.6 µM [rising, single point]. Regarding `O=C(NCCCn1ccnc1)c1cc(-c2cccs2)on1`, the AC50 runs as follows: under setting [2], 3.98 µM [rising, single point]; under setting [1], 35.5 µM [falling, single point]. As for `CCN(CC(=O)Nc1ccc2c(c1)OCCO2)c1nc(-c2cccnc2)nc2ccccc12`, the AC50 under setting [1] was 17.8 µM [rising, partial curve, poor fit]. As for `O=C1c2ccccc2C(=O)c2c1ncn2-c1ccccc1`, under setting [1], the AC50 is 35.5 µM [rising, single point]. On to `CCn1c(C)cc(/C=C2/NC(=O)N(c3ccccc3)C2=O)c1C`, for which the AC50 under setting [1] was 7.08 µM [falling, partial curve, poor fit]. As for `CC(=O)N1CCCc2cc(S(=O)(=O)N(C)CC(=O)Nc3ccc(Cl)cc3C)ccc21`, the AC50 was 1.58 µM [falling, partial curve, poor fit] under setting [2] and 0.1 µM [falling, full curve, poor fit] under setting [1].

Consider `CCc1ccc(C(C(=O)NC2CCCC2)N(C(=O)/C=C/C(=O)Nc2cc(C)on2)c2ccccc2C)cc1` (configuration not stated), for which the AC50 by setting is: under setting [2], 25.1 µM [falling, single point]; under setting [1], 0.00708 µM [rising, full curve, poor fit]. As to `N=C(N)c1ccc2cc(OC(=O)c3ccc(N=C(N)N)cc3)ccc2c1`, the concentration at half-maximal activity (AC50) under setting [2] was 0.01 µM [falling, full curve, poor fit] and the half-maximal activity concentration (AC50) under setting [1] was 0.00891 µM [falling, full curve, poor fit]. As to `Cc1ccc(-c2noc(CCC(=O)NC3CCCc4ccccc43)n2)cc1` (configuration not stated), under setting [2], the concentration at half-maximal activity (AC50) is 2 µM [rising, partial curve]. On to `COc1ccc2cc(C3CC(c4cccs4)=NN3S(C)(=O)=O)c(Cl)nc2c1` (configuration not stated), for which the half-maximal activity concentration (AC50) under setting [1] is 17.8 µM [rising, single point]. For the molecule `CN(C)CCNc1nc2c(c(=O)[nH]c(=O)n2C)n1CC(O)COc1ccc(Cl)cc1Cl` (configuration not stated), the concentration at half-maximal activity (AC50) under setting [1] was 1.41 µM [rising, partial curve, poor fit].

Consider `Cc1nc2c(C(=O)NC(C)c3ccccc3)cnn2c(C)c1Cc1ccccc1` (configuration not stated), for which the half-maximal activity concentration (AC50) by setting is: under setting [2], 14.1 µM [falling, partial curve]; under setting [1], 22.4 µM [falling, partial curve]. Regarding `COc1ccccc1CC(=O)Nc1ccc(-c2nnc(-c3ccco3)o2)cc1`, the AC50 under setting [1] was 22.4 µM [rising, single point]. Still for that read-out and setting: the figure for `COc1ccccc1CNC(=O)COC(=O)c1cnccn1` is 0.501 µM [falling, single point]. For the molecule `CCNc1ncc2nc(-c3cn(C)c4ccccc34)c(=O)n(-c3ccc(OC)cc3)c2n1`, the AC50 is, setting by setting: under setting [2], 5.01 µM [falling, partial curve, poor fit]; under setting [1], 3.98 µM [falling, partial curve, poor fit].

Regarding `CCC(=O)Nc1nnc(S(=O)(=O)N2CCc3ccccc32)s1`, the concentration at half-maximal activity (AC50) reads like this: under setting [2], 17.8 µM [falling, single point]; under setting [1], 25.1 µM [falling, partial curve].

Consider `CCOC(=O)c1ccc(NC(=O)Cn2cc(C(=O)c3ccc(Cl)cc3)c(=O)c3ccc(C)nc32)cc1`, for which the AC50 was 5.62 µM [rising, single point] under setting [2] and 3.55 µM [rising, partial curve] under setting [1]. Take `CN(Cc1nc(Cc2ccccc2F)no1)Cc1cccc2ncccc12`: the AC50 reads like this: under setting [2], 0.0251 µM [falling, full curve, poor fit]; under setting [1], 0.0158 µM [falling, full curve, poor fit].

Regarding `C(=N/Nc1nc(-c2ccccc2)cc(-c2ccccc2)n1)/c1cccnc1`, the AC50 under setting [1] was 25.1 µM [rising, partial curve, poor fit].

For the molecule `CN1CCN(c2ncnc3ccc(-c4ccccc4Cl)cc23)CC1`, the half-maximal activity concentration (AC50) reads like this: under setting [2], 11.2 µM [falling, partial curve, poor fit]; under setting [1], 7.94 µM [falling, partial curve, poor fit]. In the case of `COc1cc(C(=O)/C=C/Nc2ccc(NC(C)=O)cc2)cc(OC)c1OC`, the AC50 by setting is: under setting [2], 0.178 µM [falling, full curve, poor fit]; under setting [1], 0.224 µM [falling, full curve, poor fit].

In the case of `CCOC(=O)c1sc(=NC(=O)c2ccc(S(=O)(=O)N3CC(C)OC(C)C3)cc2)n(C)c1C` (configuration not stated), the half-maximal activity concentration (AC50) runs as follows: under setting [2], 3.98 µM [falling, single point]; under setting [1], 3.98 µM [falling, single point].

For the molecule `CCCCN(CCCC)CCNC(=O)CSCc1ccc(C)cc1`, the AC50 under setting [1] was 0.141 µM [rising, full curve]. In the case of `O=C(O)COc1ccc2c3c(c(=O)oc2c1)CCCC3`, under setting [2], the AC50 was 5.62 µM [rising, single point]. For the molecule `CCOCCCn1c(SCC(=O)Nc2ccc(OC)cc2OC)nc2ccccc2c1=O`, the AC50 is, setting by setting: under setting [2], 2.24 µM [falling, partial curve]; under setting [1], 1.26 µM [falling, partial curve]. Turning to `COc1cc(/C=C2\SC(=S)NC2=O)ccc1OS(=O)(=O)c1ccccc1`, the concentration at half-maximal activity (AC50) is, setting by setting: under setting [2], 11.2 µM [rising, single point]; under setting [1], 20 µM [rising, single point]. Regarding `CC1CCN(c2ncnc3c2cnn3Cc2ccc(Cl)cc2)CC1`, the half-maximal activity concentration (AC50) by setting is: under setting [2], 31.6 µM [rising, single point]; under setting [1], 31.6 µM [rising, single point]. As for `Cc1cccc(-n2c(O)c(C=Nc3ccc(O)cc3)c3ccccc3c2=O)n1`, the AC50 was 11.2 µM [rising, partial curve] under setting [2] and 10 µM [rising, partial curve] under setting [1]. With `CCOC(=O)C1(Cc2ccc(Cl)cc2)CCN(C(=O)c2sc(C)nc2C)CC1`, the concentration at half-maximal activity (AC50) under setting [2] is 2.51 µM [falling, full curve] and the AC50 under setting [1] was 3.98 µM [falling, full curve]. For the molecule `Cc1ccc(-c2nc3s/c(=C\c4ccco4)c(=O)n3n2)cc1`, under setting [1], the AC50 was 0.794 µM [rising, full curve, poor fit].

As for `CCOC(=O)N1CCN(Cc2nc(Cc3cccc(F)c3)no2)CC1`, the concentration at half-maximal activity (AC50) was 0.355 µM [falling, partial curve, poor fit] under setting [2] and 0.501 µM [falling, single point] under setting [1]. Turning to `O=C(CSc1n[nH]c(-c2ccncc2)n1)c1ccccc1`, the AC50 under setting [1] is 15.8 µM [rising, partial curve]. `O=C(Nc1cc(Cl)ccc1O)c1cc2n(n1)C(C(F)(F)F)CC(c1ccc3c(c1)OCO3)N2` (configuration not stated): the AC50 under setting [1] is 3.98 µM [rising, partial curve]. As to `S=C(NCCC1=CCCCC1)NCc1ccco1`, the AC50 under setting [1] was 2.24 µM [rising, partial curve].

For `COc1ccc(NC(=O)C(c2ccc(OC)cc2)N(C)C(=O)CC2NC(=O)NC2=O)cc1` (configuration not stated), the half-maximal activity concentration (AC50) under setting [1] was 3.98 µM [rising, single point]. With `Nc1ccccc1NC1CCCCC1`, under setting [2], the AC50 was 35.5 µM [falling, single point]. Consider `COc1ccc(OC)c(NS(=O)(=O)c2ccc(N3CCCC3=O)cc2)c1`, for which the half-maximal activity concentration (AC50) under setting [2] was 11.2 µM [rising, single point]. Regarding `CCCC(=O)Nc1nc(-c2ccc3c(c2)OCCO3)cs1`, the AC50 under setting [1] was 14.1 µM [rising, single point]. With `COc1ccc(OCCSc2nnc(-c3ccoc3C)n2C)cc1`, the AC50 by setting is: under setting [2], 22.4 µM [rising, single point]; under setting [1], 31.6 µM [rising, single point]. With `Cc1ccccc1-n1c(SCC(=O)c2c(N)n(C)c(=O)n(C)c2=O)nc2sc3c(c2c1=O)CCCC3`, under setting [1], the AC50 is 3.98 µM [rising, single point]. Regarding `CCOc1ccc(NC(C)C(=O)N/N=C/c2cccs2)cc1` (configuration not stated), the half-maximal activity concentration (AC50) by setting is: under setting [2], 17.8 µM [rising, single point]; under setting [1], 10 µM [rising, partial curve]. As for `CC(=O)NC1=NN(C(C)=O)C(C)(c2cccs2)S1` (configuration not stated), under setting [1], the AC50 is 6.31 µM [rising, full curve]. In the case of `COCc1ccc(CN2CCc3c([nH]c4ccccc34)C2C(C)(C)C)o1` (configuration not stated), the AC50 by setting is: under setting [2], 35.5 µM [rising, single point]; under setting [1], 20 µM [rising, single point]. Consider `COc1ccc(NC(=O)Nc2ccc(C(C)C)cc2)cc1`, for which the AC50 under setting [2] was 35.5 µM [falling, single point]. Take `CS(=O)(=O)CCCCN=C=S`: the AC50 is 5.01 µM [falling, partial curve] under setting [2] and 12.6 µM [falling, partial curve] under setting [1]. On to `CCOc1ccc(Oc2ccc(C(F)(F)F)cc2N)cc1`, for which the concentration at half-maximal activity (AC50) under setting [1] is 7.08 µM [rising, partial curve, poor fit]. Consider `O=C(c1cc(-c2ccccc2)on1)N1CCN(Cc2ccc3c(c2)OCO3)CC1`, for which the AC50 is, setting by setting: under setting [2], 22.4 µM [rising, single point]; under setting [1], 35.5 µM [rising, single point]. As to `Cc1onc(-c2ccccc2Cl)c1C(=O)N(C)C1CCCCC1`, the half-maximal activity concentration (AC50) under setting [1] was 35.5 µM [rising, single point]. Consider `CC(C)c1ccc(NC(=O)CSc2nc(=O)n(Cc3cccnc3)c3c2CCC3)cc1`, for which the AC50 under setting [2] was 20 µM [falling, partial curve, poor fit]. As for `CCCCN(CCCC)CCNC(=O)c1cc(=O)[nH]c2ccc(S(=O)(=O)N3CCCCCC3)cc12`, the half-maximal activity concentration (AC50) under setting [2] was 0.794 µM [falling, full curve, poor fit]. As for `COc1ccc(-n2c(O)c(/C=N/Nc3nc(C)cc(C)n3)c3ccccc3c2=O)cc1OC`, under setting [2], the AC50 was 25.1 µM [falling, partial curve]. Turning to `CC1Cc2cc(-c3csc(NC(=O)Cc4ccccc4)n3)ccc2N1S(C)(=O)=O` (configuration not stated), the AC50 under setting [2] was 2.51 µM [rising, full curve].
